Reference: US10700298B2, “OLED display panel and electronic device comprising the same” (SHANGHAI TIANMA AM-OLED CO., LTD., priority 2016, dated 2020)

Experiments:
[1] = Hole mobility rate of the hole transporting material; assay type: physicochemical; details: hole transporting layer material
[2] = Crosstalk test of OLED display panel (LGreen/LBlue); details: dark room, B screen, intensity ratio of green light of adjacent pixels at blue light intensity 0.1 Cd/m^2
Description: Performance tests of the OLED display panels in the Examples and Comparative Examples were carried out.
(2) Crosstalk test method: the program being transferred to the B screen in a dark room, testing the intensity ratio of the green light of adjacent pixels when the blue light intensity was 0.1 Cd/m^2, LGreen/LBlue;

Mask cleaning effect = details: time for materials on the MASK to be completely cleaned, ultrasonic 40 kHz, 25° C.
Description: (3) Mask cleaning effect:
the time required for all the materials on the MASK of the red light of the hole transporting layer 203 to be completely cleaned at a fixed ultrasonic frequency of 40 kHz and at a temperature of 25° C.

SMILES	hole mobility rate [1]	LGreen/LBlue [2] [%]	Mask cleaning time (Mask cleaning effect) [s]
c1ccc(-c2ccc(N(c3ccc(-c4ccccc4)cc3)c3ccc(-c4ccc(N(c5ccc(-c6ccccc6)cc5)c5ccc(-c6ccccc6)cc5)cc4)cc3)cc2)cc1 [Comparative Example 1, reference compound]	3×10^−4 cm^2/V·S	1.5	80
CC1(C)c2cc(N(c3ccc(-c4ccccc4)cc3)c3ccc(-c4ccccc4)cc3)ccc2-c2ccc(N(c3ccc(-c4ccccc4)cc3)c3ccc(-c4ccccc4)cc3)cc21 [Comparative Example 2, reference compound]	3.2×10^−4 cm^2/V·S	1.8	60
c1ccc(-c2ccc(N(c3ccc(-c4ccccc4)cc3)c3ccc(-c4ccc(N(c5ccc(-c6ccccc6)cc5)c5ccc(-c6ccccc6)cc5)c5c4CCCC5)cc3)cc2)cc1 [Comparative Example 3, reference compound]	7×10^−5 cm^2/V·S	1.0	58
c1ccc(-c2ccc(N(c3ccc(-c4ccccc4)cc3)c3ccc(N(c4ccc(-c5ccccc5)cc4)c4ccc(-c5ccccc5)cc4)cc3)cc2)cc1 [Comparative Example 4, reference compound]	2×10^−4 cm^2/V·S	1.7	65
CC(C)c1ccc(-c2ccc(N(c3ccc(-c4ccccc4)cc3)c3ccc(-c4ccc(N(c5ccc(-c6ccccc6)cc5)c5ccc(-c6ccc(C(C)C)cc6)cc5)c(C(C)C)c4)cc3)cc2)cc1 [Example 3]	2.5×10^−4 cm^2/V·S	1.7	20
Cc1cc(N(c2ccc(-c3ccccc3)cc2)c2ccc(-c3ccc(C(C)C)cc3)cc2)ccc1-c1ccc(N(c2ccc(-c3ccccc3)cc2)c2ccc(-c3ccc(C(C)C)cc3)cc2)cc1 [Example 4]	2.4×10^−4 cm^2/V·S	1.7	20
Cc1cc(-c2ccc(N(c3ccc(-c4ccccc4)cc3)c3ccc4c(c3)C(C)(C)c3ccccc3-4)cc2)cc(C)c1N(c1ccc(-c2ccccc2)cc1)c1ccc2c(c1)C(C)(C)c1ccccc1-2 [Example 5]	3.5×10^−4 cm^2/V·S	1.9	35
Cc1cccc(-c2ccc(N(c3ccc(-c4cccc(C)c4)cc3)c3ccc4c(c3)C(C)(C)c3cc(N(c5ccc(-c6cccc(C)c6)cc5)c5ccc(-c6cccc(C)c6)cc5)ccc3-4)cc2)c1 [Example 6]	3×10^−4 cm^2/V·S	1.5	25
Cc1cccc(C)c1-c1ccc(N(c2ccc3c(c2)C(C)(C)c2ccccc2-3)c2ccc3c(c2)C(C)(C)c2cc(N(c4ccc(-c5c(C)cccc5C)cc4)c4ccc5c(c4)C(C)(C)c4ccccc4-5)ccc2-3)cc1 [Example 7]	5×10^−4 cm^2/V·S	3.1	25
Cc1cc(N(c2ccc3c(c2)C(C)(C)c2ccccc2-3)c2ccc3c(c2)C(C)(C)c2ccccc2-3)ccc1-c1ccc(N(c2ccc3c(c2)C(C)(C)c2ccccc2-3)c2ccc3c(c2)C(C)(C)c2ccccc2-3)cc1 [Example 8]	4×10^−4 cm^2/V·S	2.7	25
Cc1ccc(-c2ccc(N(c3ccc(-c4cccc(C)c4)cc3)c3ccc(-c4ccc(N(c5ccc(-c6ccccc6)cc5)c5ccc(-c6ccc(C)cc6)cc5)c5c4CCCC5)cc3)cc2)cc1 [Example 9]	4×10^−4 cm^2/V·S	1.8	30
Cc1cccc(-c2ccc(N(c3ccc(-c4cccc5c4CCCC5)cc3)c3ccc(-c4ccc(N(c5ccc(-c6cccc(C)c6)cc5)c5ccc(-c6cccc7c6CCCC7)cc5)c5c4CCCC5)cc3)cc2)c1 [Example 10]	2.1×10^−4 cm^2/V·S	2.1	25
Cc1cc(N(c2ccc(-c3ccccc3)cc2)c2ccc(-c3cccc4c3CCCC4)cc2)ccc1-c1ccc(N(c2ccc(-c3ccccc3)cc2)c2ccc(-c3cccc4c3CCCC4)cc2)cc1 [Example 11]	1.8×10^−4 cm^2/V·S	1.3	25
Cc1ccccc1-c1ccc(N(c2ccc(-c3ccccc3)cc2)c2ccc(-c3ccc(N(c4ccc(-c5ccccc5)cc4)c4ccc(-c5ccccc5C)c5c4CCCC5)c4c3CCCC4)cc2)c2c1CCCC2 [Example 12]	1.9×10^−4 cm^2/V·S	1.3	23
